The chains are these.
B1: chimeric antibody LC007 (antibody, human IgG1, kappa, V domains shown)
VH: EVQLQESGPGLVKPSQSLSLTCSVTGYSITSGYYWNWIRQFPGNKLEWMGYITYDGSNNYNPSLKNRISITRDTSKNQFFLKLNSVTTEDTATYYCADFDYWGQGTTLTVSS
VL: DIVLTQSPSSLSASLGDRVTISCSASQGIRNYLNWYQQRPDGTVKLLIYYTSSLHSGVPSRFSGSGSGTDYSLTISNLEPEDIATYYCQQYSKLPWTFGGGTKLEIKR
notes: all such entries are written under the chimeric antibody; also called LC007 antibody; LC007 wt
B2: LC007 humanized antibody with heavy chain construct M4-1 and light chain ML1 (antibody, V domains shown)
VH: QVQLQESGPGLVKPSQTLSLTCTVSGYSITSGYYWNWIRQHPGKGLEWIGYITYDGSNNYNPSLKSRVTISRDTSKNQFSLKLSSVTAADTAVYYCADFDYWGQGTLVTVSS
VL: DIQMTQSPSSLSASVGDRVTITCSASQGIRNYLNWYQQKPGKAPKLLIYYTSSLHSGVPSRFSGSGSGTDFTLTISSLQPEDFATYYCQQYSKLPWTFGQGTKVEIK
B3: M4-1 ML2 (antibody, V domains shown)
VH: QVQLQESGPGLVKPSQTLSLTCTVSGYSITSGYYWNWIRQHPGKGLEWIGYITYDGSNNYNPSLKSRVTISRDTSKNQFSLKLSSVTAADTAVYYCADFDYWGQGTLVTVSS
VL: DIQMTQSPSSLSASVGDRVTITCRASQGIRNYLNWYQQKPGKAPKLLIYYTSSLHSGVPSRFSGSGSGTDFTLTISSLQPEDFATYYCQQYSKLPWTFGQGTKVEIK
B4: antibodies having the heavy chain construct M4-3 (Example 7) (antibody, V domains shown)
VH: QVQLQESGPGLVKPSQTLSLTCTVSGGSITSGYYWNWIRQHPGKGLEWIGYITYDGSNNYNPSLKSRVTISRDTSKNQFSLKLSSVTAADTAVYYCADFDYWGQGTLVTVSS
VL: DIQMTQSPSSLSASVGDRVTITCSASQGIRNYLNWYQQKPGKAPKLLIYYTSSLHSGVPSRFSGSGSGTDFTLTISSLQPEDFATYYCQQYSKLPWTFGQGTKVEIK
B5: M4-6 ML1 (antibody, V domains shown)
VH: QVQLQESGPGLVKPSQTLSLTCTVSGYSITSGYYWNWIRQHPGKGLEWIGYITYDGSNNYNPSLKSRVTISVDTSKNQFSLKLSSVTAADTAVYYCADFDYWGQGTLVTVSS
VL: DIQMTQSPSSLSASVGDRVTITCSASQGIRNYLNWYQQKPGKAPKLLIYYTSSLHSGVPSRFSGSGSGTDFTLTISSLQPEDFATYYCQQYSKLPWTFGQGTKVEIK

Sequences of proteins named here, by UniProt entry; tags and fusion partners are left off. Residues count along the entry.
UniProt Q6UVK1, residues 30-2322: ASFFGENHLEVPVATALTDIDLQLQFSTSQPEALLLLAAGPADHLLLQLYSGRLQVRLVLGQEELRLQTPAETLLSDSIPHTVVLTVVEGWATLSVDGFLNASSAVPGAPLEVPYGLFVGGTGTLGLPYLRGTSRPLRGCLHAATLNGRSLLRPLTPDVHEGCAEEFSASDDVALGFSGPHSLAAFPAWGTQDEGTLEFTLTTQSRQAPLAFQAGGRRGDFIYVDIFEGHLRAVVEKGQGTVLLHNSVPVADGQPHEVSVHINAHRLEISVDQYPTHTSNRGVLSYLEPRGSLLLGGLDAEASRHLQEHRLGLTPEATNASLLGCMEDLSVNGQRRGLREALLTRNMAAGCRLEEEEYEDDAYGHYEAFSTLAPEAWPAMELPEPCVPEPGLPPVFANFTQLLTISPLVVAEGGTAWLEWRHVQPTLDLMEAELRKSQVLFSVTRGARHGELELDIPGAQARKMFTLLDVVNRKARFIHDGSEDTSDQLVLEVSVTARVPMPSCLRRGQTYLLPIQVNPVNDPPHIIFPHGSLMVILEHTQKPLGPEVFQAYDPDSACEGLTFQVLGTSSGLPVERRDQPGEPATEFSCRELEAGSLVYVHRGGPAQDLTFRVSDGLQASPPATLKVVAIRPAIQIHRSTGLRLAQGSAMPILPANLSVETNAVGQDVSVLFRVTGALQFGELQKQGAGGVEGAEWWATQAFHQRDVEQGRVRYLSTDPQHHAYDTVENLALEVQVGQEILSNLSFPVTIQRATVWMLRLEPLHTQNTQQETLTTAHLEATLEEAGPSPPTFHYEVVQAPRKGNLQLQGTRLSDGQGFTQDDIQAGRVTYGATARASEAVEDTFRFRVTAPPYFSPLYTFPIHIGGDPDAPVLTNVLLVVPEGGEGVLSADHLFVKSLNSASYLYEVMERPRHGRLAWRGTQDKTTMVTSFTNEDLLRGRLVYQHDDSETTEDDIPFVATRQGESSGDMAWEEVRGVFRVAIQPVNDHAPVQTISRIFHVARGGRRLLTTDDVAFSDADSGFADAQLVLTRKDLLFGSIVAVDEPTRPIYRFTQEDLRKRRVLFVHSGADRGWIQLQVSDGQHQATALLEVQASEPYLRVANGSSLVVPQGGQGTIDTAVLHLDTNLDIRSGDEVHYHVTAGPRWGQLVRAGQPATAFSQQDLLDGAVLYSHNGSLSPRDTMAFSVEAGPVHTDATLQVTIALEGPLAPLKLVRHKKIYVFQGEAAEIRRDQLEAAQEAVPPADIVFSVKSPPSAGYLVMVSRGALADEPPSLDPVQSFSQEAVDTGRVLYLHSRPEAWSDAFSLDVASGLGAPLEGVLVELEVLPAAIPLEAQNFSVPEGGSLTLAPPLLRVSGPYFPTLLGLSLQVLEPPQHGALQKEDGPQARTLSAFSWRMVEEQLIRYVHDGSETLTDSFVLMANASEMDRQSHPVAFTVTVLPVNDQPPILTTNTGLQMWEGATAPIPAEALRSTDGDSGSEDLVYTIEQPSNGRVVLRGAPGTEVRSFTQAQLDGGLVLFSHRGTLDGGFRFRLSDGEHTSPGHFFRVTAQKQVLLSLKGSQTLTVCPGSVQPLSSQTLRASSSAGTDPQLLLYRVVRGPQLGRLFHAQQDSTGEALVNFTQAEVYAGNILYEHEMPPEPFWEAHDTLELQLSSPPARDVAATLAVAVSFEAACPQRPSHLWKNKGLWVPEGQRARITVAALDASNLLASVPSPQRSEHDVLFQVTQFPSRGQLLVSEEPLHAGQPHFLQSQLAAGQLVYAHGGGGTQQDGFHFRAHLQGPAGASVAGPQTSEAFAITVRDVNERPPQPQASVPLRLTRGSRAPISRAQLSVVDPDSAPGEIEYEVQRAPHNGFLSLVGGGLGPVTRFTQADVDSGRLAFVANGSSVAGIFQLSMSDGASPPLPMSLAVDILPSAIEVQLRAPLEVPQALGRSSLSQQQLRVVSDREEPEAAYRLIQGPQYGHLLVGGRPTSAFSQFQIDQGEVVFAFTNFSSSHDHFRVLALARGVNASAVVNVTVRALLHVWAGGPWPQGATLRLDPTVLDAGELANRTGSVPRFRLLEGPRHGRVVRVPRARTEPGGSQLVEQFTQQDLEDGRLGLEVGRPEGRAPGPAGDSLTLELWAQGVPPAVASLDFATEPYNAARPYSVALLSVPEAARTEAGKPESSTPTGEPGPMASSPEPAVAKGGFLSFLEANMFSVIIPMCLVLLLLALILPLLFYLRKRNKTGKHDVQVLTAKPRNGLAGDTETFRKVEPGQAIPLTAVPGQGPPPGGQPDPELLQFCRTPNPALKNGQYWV

These are yes or no findings as the source states them, for the method shown. Some entries that bind do so weakly or less than the wild type.

The target in the test is MCSP antigen (as tested in Example 7, FIG. 8) (UniProt Q6UVK1). Put plainly: antibody titration with mean fluorescence read-out (cells not named).
With B1, the binding result is given as “binds”.

In the case of B2, the binding result was “binds”.

For B3, the binding entry is “binds”.

Consider B4, for which the binding entry was “binds”.

In the case of B5, the binding entry is “binds”.

Source of the values: US20140242083A1 (Hoffmann-La Roche, published 2014).
